# This is one part of the list. These are further read-outs of the screen, such as a control signal, another cell line or another target. No call is given for them. The list favours compounds with an active or inconclusive main result. Words in brackets tell the shape of the fitted curve; partial curves, single points and poor fits give uncertain potencies.
# Assay: qHTS Assay to Find Inhibitors of Chronic Active B-Cell Receptor Signaling
# Settings: ABC-DLBCL IkBa-CBG/CBR reporter, luminescence ratio (green luciferase fused to IkBa over red control in TMD8 lymphoma cells), 4 h; measured here: CBR red luminescence, cell number
# Method in brief: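 Doxycycline induced both beetle luciferases in TMD8 lymphoma cells; IKK-driven degradation limits the IkappaBalpha-fused green signal, while red luminescence normalises for cell number and nonspecific effects. Compounds tested up to 46 uM, 4 hrs.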
row,SMILES,AC50
1,O=C(COC(=O)CNC(=O)c1ccccc1)NCc1ccc2c(c1)OCO2,"4.11 µM [rising, single point]"
2,Cc1ccc(-n2nc(C)cc2N)c(C)c1,"35.5 µM [rising, single point]"
3,CC(C)n1c(=S)[nH]c2cc(Cl)ccc21,"3.55 µM [rising, partial curve, poor fit]"
4,Cc1cccc(OCC(=O)N/N=C/c2sc(=O)n(Cc3cccc(C(=O)O)c3)c2Cl)c1,"0.631 µM [falling, full curve, poor fit]"
5,N#CC1=C(N)Oc2n[nH]c(-c3ccc(F)cc3)c2C1c1cccc(OC(=O)N2CCOCC2)c1 (stereo unspecified),"5.17 µM [falling, partial curve, poor fit]"
6,CC(C)C(C(=O)Nc1ccc2c(c1)OCCO2)N1C(=O)c2ccccc2C1=O (stereo unspecified),"20.6 µM [rising, single point]"
7,O=C(CCCN1C(=O)NC2(CCCC2)C1=O)Nc1ccc(F)cc1,"16.4 µM [falling, partial curve, poor fit]"
8,COc1ccc2c(c1)CCC/C2=N\Nc1nc(C(=O)NN)cs1,"6.31 µM [falling, full curve, poor fit]"
9,COC(=O)CN1C(=O)N(c2ccccc2)C(N(O)C(=O)Nc2ccccc2)C1(C)C (stereo unspecified),"0.355 µM [rising, full curve]"
10,COc1cc(C(=O)N/N=C/c2ccc(OC)c(CN3CCN(c4ccc(F)cc4)CC3)c2)ccc1O,"8.91 µM [falling, partial curve, poor fit]"
11,COc1ccc(NC(=O)CSc2nnc(C3CCCCC3)n2N)cc1OC,"12.6 µM [falling, single point]"
12,O=C(Nc1cccc(F)c1)/C(=C\c1ccco1)NC(=O)c1cccs1,"35.5 µM [falling, single point]"
13,CCCC(=O)Nc1nc2c(c(=O)[nH]1)CCCC2,"23.1 µM [falling, single point]"
14,CCSc1nc(N)c2c3c(sc2n1)CCC3,"2.24 µM [rising, full curve, poor fit]"
15,O=C(CSc1nnc(-c2ccncc2)n1CC1CCCO1)Nc1ccccc1Cl (stereo unspecified),"0.794 µM [rising, partial curve, poor fit]"
16,CC(=O)Nc1ccc(C(=O)Nc2nnc(CCc3ccccc3)s2)cc1,"10 µM [falling, partial curve, poor fit]"
17,CCCCNC(=S)NNC(=O)c1csc(CC)c1,"4.11 µM [rising, single point]"
18,Cc1c(OCc2ccc(C(=O)O)o2)ccc2c3c(c(=O)oc12)CCC3,"3.55 µM [falling, partial curve]"
19,Cc1ccc(S(=O)(=O)N(C)C)cc1NC(=O)CN1C(=O)NC(Cc2c[nH]c3ccccc23)C1=O (stereo unspecified),"22.4 µM [falling, single point]"
20,CN(C)S(=O)(=O)c1cccc(NC(=O)CC23CC4CC(CC(C4)C2)C3)c1,"17.8 µM [falling, single point]"
21,CN1C/C(=C/c2ccncc2)C(=O)/C(=C/c2ccncc2)C1,"4.47 µM [falling, partial curve, poor fit]"

# Gathered by group: those above with a COOH group (two)
row,SMILES,AC50
4,Cc1cccc(OCC(=O)N/N=C/c2sc(=O)n(Cc3cccc(C(=O)O)c3)c2Cl)c1,"0.631 µM [falling, full curve, poor fit]"
18,Cc1c(OCc2ccc(C(=O)O)o2)ccc2c3c(c(=O)oc12)CCC3,"3.55 µM [falling, partial curve]"

# Following part.

row,SMILES,AC50
1,O=C(Nc1nnc(-c2ccccc2)o1)c1cccc(S(=O)(=O)N2CCOCC2)c1,"18.4 µM [falling, partial curve]"
2,CCCn1c(SCC(=O)O)nc2ccccc21,"0.517 µM [rising, partial curve, poor fit]"
3,CC1CCCCN1CC(=O)Nc1ccc(Oc2ccccc2)cc1 (stereo unspecified),"1.16 µM [rising, full curve, poor fit]"
4,Clc1ccc(CCNc2nc3ccccc3n3nnnc23)cc1,"11.2 µM [falling, partial curve]"
5,CC(C)(C)c1nnc(N/N=C/c2cc(Br)ccc2O)n(N)c1=O,"3.66 µM [falling, partial curve, poor fit]"
6,Cc1ccccc1NS(=O)(=O)c1ccc2[nH]cc(C(=O)N(C)Cc3ccco3)c(=O)c2c1,"20 µM [falling, partial curve, poor fit]"
7,Cc1cc(CSc2ccccc2)ccc1NC(=O)COc1ccccc1C,"0.13 µM [rising, full curve, poor fit]"
8,Cc1c(-n2c(=S)[nH]c3ccccc3c2=O)c(=O)n(-c2ccccc2)n1C,"14.6 µM [rising, single point]"
9,C=CCNC(=O)c1cc2c(=O)c3ccccc3oc2nc1C,"7.08 µM [falling, partial curve, poor fit]"
10,CCn1nc(C(=O)Nc2ccc(N3CCOCC3)cc2)c2ccccc2c1=O,"7.31 µM [rising, partial curve, poor fit]"
11,CCOc1cc(CNC(CC)CO)ccc1OCC(=O)Nc1cccc(C(F)(F)F)c1 (stereo unspecified),"11.2 µM [falling, single point]"
12,O=C(CSc1nc(=O)n(CCCN2CCOCC2)c2c1CCC2)Nc1ccc(F)cc1F,"25.9 µM [falling, partial curve, poor fit]"
13,O=C(CN1C(=O)C(=O)N(Cc2ccco2)C1=O)c1c[nH]c2ccccc12,"5.62 µM [falling, full curve]"
14,COC(=O)C1(Cc2cc(-c3ccc(OC)cc3OC)no2)CCN(C(=O)OC(C)(C)C)CC1,"35.5 µM [falling, single point]"
15,CCOc1ccccc1C(=O)NCC(=O)Nc1ncccc1C,"11.6 µM [falling, partial curve]"
16,O=C(Nc1ccccn1)c1ccc2c(c1)OCCO2,"10 µM [falling, partial curve, poor fit]"
17,CN1CCN(C(=O)/C=C/c2ccc([N+](=O)[O-])cc2)CC1,"2.59 µM [rising, full curve]"
18,CCOc1ncccc1C(=O)OCc1c(Cl)cccc1Cl,"32.6 µM [rising, partial curve, poor fit]"
19,O=C1NC(=O)/C(=C\c2ccccc2OCc2ccccc2)S1,"2.82 µM [rising, partial curve]"
20,O=Cc1ccc(OCCOc2ccc([N+](=O)[O-])cc2)cc1,"35.5 µM [rising, single point]"

# Reference: PubChem BioAssay AID493014 (National Center for Advancing Translational Sciences (NCATS), 2011)
